Test results from patent publication US8759504B2, “Cholinergic/serotoninergic receptor and uses thereof” (AbbVie Inc., priority 2007, dated 2014).
For at least one compound, name, drawing or mass did not settle the structure.

Chains of the proteins cited; added tags and fusions are not shown. A line that says so, or that is headed by a name, gives the form on record, which may keep a tag or linker. Residues count along the entry.
UniProt P36544, with tags, fused parts or gaps T225V/M226I: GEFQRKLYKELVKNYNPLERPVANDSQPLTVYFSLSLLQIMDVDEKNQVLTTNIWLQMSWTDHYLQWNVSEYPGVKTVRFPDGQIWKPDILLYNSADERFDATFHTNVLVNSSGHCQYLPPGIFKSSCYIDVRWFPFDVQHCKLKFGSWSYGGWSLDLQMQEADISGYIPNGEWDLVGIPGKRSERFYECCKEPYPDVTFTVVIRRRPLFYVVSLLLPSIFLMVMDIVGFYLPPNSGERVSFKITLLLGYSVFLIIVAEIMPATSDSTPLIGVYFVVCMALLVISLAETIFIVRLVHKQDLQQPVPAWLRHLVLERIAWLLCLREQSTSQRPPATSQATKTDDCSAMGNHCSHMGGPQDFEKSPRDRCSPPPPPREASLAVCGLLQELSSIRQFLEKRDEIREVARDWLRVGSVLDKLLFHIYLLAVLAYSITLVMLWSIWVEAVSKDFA
UniProt P36544, 23-502: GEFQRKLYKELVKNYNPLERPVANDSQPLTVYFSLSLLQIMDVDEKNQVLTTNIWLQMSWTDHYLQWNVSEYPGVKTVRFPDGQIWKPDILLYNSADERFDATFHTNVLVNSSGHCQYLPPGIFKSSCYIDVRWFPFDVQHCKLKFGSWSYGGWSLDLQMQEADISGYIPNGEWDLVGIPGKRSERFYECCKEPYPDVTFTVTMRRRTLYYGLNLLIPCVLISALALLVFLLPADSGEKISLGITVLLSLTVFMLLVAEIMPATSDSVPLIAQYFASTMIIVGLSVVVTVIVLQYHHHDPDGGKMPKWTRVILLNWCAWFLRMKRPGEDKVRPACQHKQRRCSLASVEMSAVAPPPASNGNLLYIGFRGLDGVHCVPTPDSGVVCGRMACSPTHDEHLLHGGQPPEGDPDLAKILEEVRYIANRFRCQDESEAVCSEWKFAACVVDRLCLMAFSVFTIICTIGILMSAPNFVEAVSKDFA

Tests used:
Chimera 3 = biological target: T1, Chimera 3 (Homo sapiens, UniProt P36544, M226I/T225V); assay: Two electrode voltage clamp in Xenopus oocytes, modulator effects on ACh-evoked current; format: cell-based; details: no modulator
T1 construct: expressed in transfected cells; host or cells: Xenopus laevis oocytes

[1] = biological target: T2, wild-type α7 nicotinic acetylcholine receptor (Homo sapiens, UniProt P36544); assay: Two electrode voltage clamp in Xenopus oocytes, agonist and modulator responses; format: cell-based
T2 construct: expressed in transfected cells; host or cells: Xenopus laevis oocytes

## CC(=O)OCC[N+](C)(C)C [ACh, acetylcholine]
Chimera 3
  ng of ACh curve, control (CT): 1.2 ± 0.17
[1]; 10 mM ACh, continued presence of agonist
  τdecay of agonist-evoked current: 269.0 ± 28.2 ms
[1]; Xenopus oocytes
  Maximum efficacy (mean±S.E.M.), agonist-evoked current: 101±5%
[1]; no modulator
  ng of ACh concentration-activation curve, control (CT): 1.7 ± 0.06
